Out of some 360,000 compounds screened, about 7,500 (2.1%) were called active. Inconclusive means that the source gave no clear call. Such entries were picked first, then a sample of the others. Calls follow the shape of the dose curve; as a rule, active = well fitted inhibition curve with a large enough effect; inconclusive = small, poorly fitted or top-dose-only effect, or effect the other way; inactive = flat fitted curve, though single readings scatter. Potencies beside an inconclusive call are fits to weak or partial responses and may not hold up.
experiment: Nrf2 qHTS screen for inhibitors; conditions: A549 ARE-Fluc reporter, luciferase luminescence, 18-24 h; activity change, negative = inhibition: at 46 µM (top of the series); also: nearly all actives have a fitted effect of over 60% in size
In short: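 In this cell-based qHTS, ARE-driven firefly luciferase in A549 cells reports Nrf2 activity; the luminescent signal after BugLite lysis is the measured value, with a prior CellTiter-Fluor read for cell health.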
% is scaled to controls: 0 for no effect and ±100 for the full control effect; potency is read from the fitted curve at half-maximal effect.

Row | Structure (SMILES) | Potency | activity change, negative = inhibition
1 | COCCN(Cc1cc2cc3c(cc2nc1Cl)OCO3)C(=O)Nc1ccc(OC)cc1 | active: 7.31 µM | 
2 | Oc1ccccc1/C=N/Nc1nccnc1Cl | inconclusive: 5.8 µM [falling, partial curve, poor fit] | 
3 | CCCCc1ccc(NC(=O)CSc2nc3ccccc3nc2N2CCCCC2)cc1 | inconclusive: 7.31 µM [falling, partial curve, poor fit] | 
4 | OCCN(CCO)c1nc(-c2ccccc2)nc2c1oc1ccccc12 |  | inactive: -2.33%
5 | COc1ccc(C)cc1S(=O)(=O)N1CCCC(C(=O)NC2CC2)C1 (stereo unspecified) |  | inactive: 11.1%
6 | Fc1ccc(-c2csc(-c3ccncc3)n2)cc1 | inconclusive: 2.31 µM [falling, partial curve] | 
7 | CCCN(CC(=O)Nc1ccccc1OC)C(=O)CC1CCCC1 |  | inactive: -14.6%
8 | O=C(N/N=C/c1ccc(O)c(Br)c1)c1cc2c(ccc3ccccc32)o1 | inconclusive: 0.366 µM [falling, partial curve, poor fit] | 
9 | COc1ccc(N2C(=O)C3CCCN3C2c2cccc(C)c2)cc1 (stereo unspecified) |  | inactive: 5.11%
10 | O=C(CC(Nc1ccccc1Cl)C(=O)OCC(=O)c1cccs1)c1ccccc1 (stereo unspecified) | inconclusive: 14.6 µM [activator, partial curve, poor fit] | 
11 | Cc1ccc(C(=O)O)cc1NC(=O)c1nsc2ccccc12 | inconclusive: 20.6 µM [activator, partial curve] | 
12 | COc1ccc(N2CCN(C(=O)CN(CCc3ccccc3)S(C)(=O)=O)CC2)cc1 |  | inactive: -19%
13 | CCCC(=O)Nc1ccc(NC(=O)c2ccccc2)nc1 | inconclusive: 1.3 µM [activator, partial curve] | 
14 | Oc1ccccc1N1CCN(CC(O)COC2CCCc3ccccc32)CC1 (stereo unspecified) |  | inactive: -4.34%
15 | CCOc1ccc(S(=O)(=O)Nc2cccc(C(=O)N3CCN(c4ccc(OC)cc4)CC3)c2)cc1 | inconclusive: 13 µM [falling, partial curve, poor fit] | 
16 | COc1ccc(-n2nc(C(=O)NCC(=O)NCc3ccc(F)cc3)c3ccccc3c2=O)cc1 | inconclusive: 7.31 µM [falling, single point] | 
17 | O=S(Cc1ccccc1)CC(O)(c1ccc(Cl)cc1)c1ccc(Cl)cc1 (stereo unspecified) | inconclusive: 16.4 µM [falling, partial curve, poor fit] | 
18 | CC1CCCN(C(=O)C2CCN(S(=O)(=O)c3cccs3)CC2)C1 (stereo unspecified) | inconclusive: 14.6 µM [activator, single point] | 
19 | Oc1cc(O)cc(/C=C/c2ccc(O)c(O)c2)c1 | inconclusive: 32.6 µM [activator, partial curve, poor fit] | 
20 | O=C(/C=C/c1cccs1)N1CCN(c2ccc(O)cc2)CC1 | inconclusive: 29.1 µM [falling, single point] | 
21 | COc1cc2c(cc1OC)-c1cc(Nc3cccc(F)c3)nc(=O)n1CC2 | inconclusive: 5.8 µM [falling, single point] | 
22 | Cn1c(SCC(=O)NNC(=O)Nc2ccccc2)nnc1-c1ccccc1 | inconclusive: 32.6 µM [falling, single point] | 
23 | Cc1ccc(S(=O)(=O)N2CCN(c3nc(-c4ccc(C)s4)nc4ccccc34)CC2)cc1 |  | inactive: -3.11%
24 | Cc1cc(Cl)ccc1NC(=O)CSc1nc2c(c(=O)[nH]1)CCC2 | inconclusive: 18.4 µM [activator, single point] | 

Row | Structure (SMILES) | Potency | activity change, negative = inhibition
25 | O=C(COc1ccccc1)NCC(=O)N1CCCC1 |  | inactive: 3.63%
26 | Cc1ccc(NC(=O)C(=O)NCC(c2cccnc2)N2CCN(Cc3ccccc3)CC2)cc1Cl (stereo unspecified) | inconclusive: 6.51 µM [activator, single point] | 
27 | COc1ccc(-c2csc(NC(=O)c3ccco3)n2)cc1 | inconclusive: 0.58 µM [activator, full curve] | 
28 | CCN1CCN(c2nc(Nc3cccc(OC)c3)nc(N)c2[N+](=O)[O-])CC1 |  | inactive: -6.85%
29 | COc1cc(OC)c(NC(=O)Nc2ccc3c(c2)N(C)C(=O)c2ccccc2S3)cc1Cl | active: 20.6 µM | 
30 | COc1ccc(-c2nc(-c3cccnc3)no2)cc1 | inconclusive: 16.4 µM [activator, partial curve] | 
31 | Cc1ccc(-c2onc(C)c2C)cc1S(=O)(=O)N1CCN(c2ccccc2F)CC1 | inconclusive: 3.26 µM [falling, full curve, poor fit] | 
32 | Cc1cc(Br)ccc1NC(=O)c1sc2ncnc(N3CCN(c4ccccn4)CC3)c2c1C |  | inactive: -24.9%
33 | Cc1cc(NC(=NC2CC2)c2ccccc2)n(-c2ccccc2)n1 |  | inactive: -6.35%
34 | CCCCC(CC)CO (stereo unspecified) |  | inactive: -9.23%
35 | COc1ccc(-c2noc(CCC(=O)Nc3ccc(C)c(C)c3)n2)cc1 | inconclusive: 29.1 µM [falling, single point] | 
36 | CCn1c2ccccc2c2cc(CN3CCN(Cc4cccc(Cl)c4)CC3)ccc21 |  | inactive: 1.46%
37 | Cc1ccnc(Nc2nc3ccccc3s2)n1 | inconclusive: 4.11 µM [activator, partial curve] | 
38 | COC(=O)c1ccccc1NC(=O)CCCn1nc(C)c2c(C)n(-c3ccccc3)nc2c1=O | inconclusive: 20.6 µM [activator, partial curve] | 
39 | Cc1[nH]nc2c1C1(C(=O)N(Cc3ccc(Cl)cc3)c3ccccc31)C(C#N)=C(N)O2 (stereo unspecified) | active: 20.6 µM | 
40 | COc1cc2nc(N(CCN(C)C)C(=O)c3ccc4ccccc4c3)sc2cc1OC | inconclusive: 20.6 µM [activator, partial curve] | 
41 | CC(NC(=O)COC(=O)C12CC3CC(CC(O)(C3)C1)C2)c1ccccc1 (stereo unspecified) | inconclusive: 20.6 µM [activator, single point] | 
42 | O=C(NNC(=O)C1CC1c1ccccc1)Nc1ccccc1 (stereo unspecified) |  | inactive: -4.74%
43 | Cc1ccc(C(=O)N/C(=C/c2ccc(-c3cccc([N+](=O)[O-])c3)o2)C(=O)NC(C)C)cc1 | inconclusive: 23.1 µM [falling, partial curve, poor fit] | 
44 | C=CCC(CC(O)COCCC)C(=O)NNC(=S)Nc1ccccc1 (stereo unspecified) | inconclusive: 29.1 µM [activator, single point] | 
45 | O=C1c2ccccc2C(=O)c2c1cccc2N(CCO)CCO |  | inactive: -8.47%
46 | COC(=O)c1ccccc1NC(=O)Nc1ccc2c(c1)OCO2 | inconclusive: 29.1 µM [activator, single point] | 
47 | COc1ccc(CCNC(=O)COc2coc(CN3c4ccccc4CC3C)cc2=O)cc1OC (stereo unspecified) | inconclusive: 14.6 µM [falling, partial curve, poor fit] | 
48 | COc1ccc(Cl)cc1C=CC=Nc1ccccc1O |  | inactive: -6.87%

Row | Structure (SMILES) | Potency | activity change, negative = inhibition
49 | O=C(COC(=O)Cc1c[nH]c2ccccc12)NC1CCS(=O)(=O)C1 (stereo unspecified) | inconclusive: 2.31 µM [activator, single point] | 
50 | Nc1nc(-c2cccc(F)c2)cs1 | inconclusive: 8.2 µM [activator, partial curve] | 
51 | COc1ccc(CNC(=O)N2CCN(c3ccc(F)cc3)CC2)cc1Cl | inconclusive: 16.4 µM [falling, partial curve, poor fit] | 
52 | COc1cc(NC(=O)CN2CCN(S(=O)(=O)c3ccc(Br)cc3)CC2)cc(OC)c1 | inconclusive: 7.31 µM [activator, partial curve] | 
53 | C=CCn1c(SCC(=O)N2CCc3ccccc3C2)nc2sc(CC)cc2c1=O |  | inactive: -34.5%
54 | COc1cccc(NC(=O)[C@@H]2CCCN2S(=O)(=O)c2cccc3cccnc23)c1 | inconclusive: 18.4 µM [falling, single point] | 
55 | COc1ccc(NC(=O)CSc2nc(-c3cc(OC)c(OC)c(OC)c3)[nH]c2-c2ccc(F)cc2)cc1 | inconclusive: 32.6 µM [falling, single point] | 
56 | Cc1ccc(Nc2nc(-c3ccncc3)cs2)cc1 | inconclusive: 18.4 µM [activator, partial curve] | 
57 | COc1ccc(S(=O)(=O)c2c(Nc3cccc(C)c3C)sc(C(=O)c3ccccc3)c2N)cc1 |  | inactive: -6.81%
58 | CCOc1ccc(C(C)=O)cc1CN1C(=O)C(=O)N(CC)C1=O | inconclusive: 23.1 µM [activator, partial curve] | 
59 | O=C(NCCCN1CCCC1)[C@H](CSCc1ccccc1)N1Cc2ccccc2C1=O | inconclusive: 29.1 µM [activator, single point] | 
60 | COc1ccc(NC(=O)c2ccc3c(=O)n4c(nc3c2)CCCCC4)cc1 |  | inactive: -3.1%
61 | COc1cc(CNn2nnnc2N)ccc1OCc1c(Cl)cccc1Cl | inconclusive: 0.92 µM [falling, full curve] | 
62 | CC(=O)N1CCC(N(CCN2CCOCC2)C(=S)Nc2ccc(C)cc2C)CC1 | inconclusive: 23.1 µM [activator, single point] | 
63 | CCOC(=O)c1c(C)oc2nc(C)nc(NCCc3ccc(OCC)c(OCC)c3)c12 | inconclusive: 32.6 µM [falling, single point] | 
64 | O=C(N/N=C/c1c[nH]c2ccccc12)c1sc2ccccc2c1Cl | inconclusive: 4.11 µM [activator, partial curve] | 
65 | C[C@@H](C(=O)OCC(=O)c1ccccc1)N1C(=O)C2CCCCC2C1=O (stereo partly specified) | inconclusive: 0.517 µM [falling, partial curve, poor fit] | 
66 | O=C(Nc1ccccc1)c1cc(S(=O)(=O)Nc2cccnc2)ccc1Cl |  | inactive: -10.3%
67 | COC(=O)c1ccc(NC(=O)CSc2cn(CC(=O)N3CCCCC3)c3ccccc23)cc1 |  | inactive: -17.3%
68 | CCCCN(CCO)c1ncnc2sc(-c3ccccc3)cc12 | inconclusive: 29.1 µM [falling, single point] | 
69 | Cc1ccc(S(=O)(=O)N2CCN(CCc3ccncc3)CC2)cc1 | inconclusive: 29.1 µM [falling, single point] | 
70 | Nc1nnc(SCC(=O)NCCOc2ccccc2)s1 |  | inactive: 17%
71 | CCCn1c(-c2ccccc2)cc(SC)c(C#N)c1=O |  | inactive: 10.4%

Reprinted at random: 3 compounds from above
Row | Structure (SMILES) | Potency | activity change, negative = inhibition
14 | Oc1ccccc1N1CCN(CC(O)COC2CCCc3ccccc32)CC1 (stereo unspecified) |  | inactive: -4.34%
43 | Cc1ccc(C(=O)N/C(=C/c2ccc(-c3cccc([N+](=O)[O-])c3)o2)C(=O)NC(C)C)cc1 | inconclusive: 23.1 µM [falling, partial curve, poor fit] | 
53 | C=CCn1c(SCC(=O)N2CCc3ccccc3C2)nc2sc(CC)cc2c1=O |  | inactive: -34.5%

— PubChem BioAssay AID504444 (National Center for Advancing Translational Sciences (NCATS), 2011)
